Results from ChEMBL document CHEMBL4513149, “CO-ADD screening of MMV (CH) - MMV compounds” (2021).
This is one part of the list. Results with a measured potency or affinity are listed apart.

system: Pseudomonas aeruginosa; conditions: Concentration 20 uM; ASSAY_TEST Inhibition of Bacterial Growth; detection method Absorption (OD600); MEDIA CAMHB; plate type 384well; NBS; CORNING #3640; time 18 hr

Compound | Inhibition
NC(=O)c1cc(Br)ccc1OCCOc1ccccc1 | 5.76%
CCOC(=O)c1cc(-c2csc(Nc3c(C)cc(C)cc3C)n2)on1 | 10.94%
Cc1cc2nc(NC(=O)C(C)(C)C)nc(Cl)c2n1Cc1ccc(Cl)cc1 | 0.95%
CN1CCCN(C(c2ccccc2)c2ccc(Cl)cc2)CC1 (configuration not stated) [HOMOCHLORCYCLIZINE] | 6.82%
c1ccc(Oc2ccc(-c3cc(C4CCOCC4)[nH]n3)cc2)cc1 | 26.87%
CCc1ccc(C(NCc2nc(N)nc(N(C)C)n2)C(C)C)cc1 (configuration not stated) | 14.01%
NCC(=O)N1CCn2c(nc(-c3ccccc3)c2Nc2ccc3c(c2)OCO3)C1 | 5.26%
Nc1nccc2ccc(Oc3ccncc3)cc12 | 15.65%
O=C(Nc1ccnc(-c2cccnc2)n1)c1cc(C(F)(F)F)cc(C(F)(F)F)c1 | 16.26%
CCC(NC(=O)c1ccccc1NC(=O)c1ccc(C)cc1)C(=O)OC (configuration not stated) | 10.28%
CN1CCN(c2cc(-c3ccc(F)cc3)nc(-c3ccncc3)n2)CC1 | 6.21%
Cc1ccc(NC(=O)c2cc(S(=O)(=O)NC(C)(C)C)ccc2C)nc1 | 16.31%
Cc1ccc2nc(Cl)c(CNCc3cccs3)cc2c1 | 3.2%
COc1ccc(C2=NN(C3CCCCCC3)C(=O)C2(C)C)cc1OCCCCOc1ccc(-c2nn[nH]n2)cc1 | 4.89%
COc1cc(OC)cc(C(=O)NCC2Cc3cc(Cl)cc(-c4ccncc4)c3O2)c1 (configuration not stated) | 4.47%
COc1ccc(-c2nnc3ccc(-c4cccc(C(C)C)c4)cn23)cc1OC | 7.39%
Cc1cc(OCC(=O)Nc2ccc(C(C)C)cc2)n(C)c(=O)c1C#N | 8.56%
COC(=O)c1cccc2oc(-c3cccc(OC)c3NC(=O)c3cc(-c4ccccc4)on3)nc12 | 8.15%
O=C(NCCc1ccccc1)c1cc(-c2cccnc2)cnc1NCC1CC1 | -0.54%
CC(C)(C)c1cc(C(=O)Nc2cccnc2)cc(C(=O)Nc2cccnc2)c1 | 5.87%
Nc1ncnc2c1ncn2C[C@@H](O)[C@@H](O)C(=O)O [ERITADENINE] | 17.98%
c1coc(CNc2nc(N3CCCCC3)nc3ccccc23)c1 | 9.51%
O=C(N[C@H](Cc1ccccc1)C(=O)Nc1ccccc1N1CCOCC1)c1cccs1 | 9.66%

Compound | Inhibition
O=C1COCc2ccc(Br)cc2N1Cc1ccc(C(F)(F)F)cc1 | 14.7%
Cl.O[C@@H](c1cc(C(F)(F)F)nc2c(C(F)(F)F)cccc12)[C@H]1CCCCN1 | 18.63%
c1ccc(Oc2ccc(-c3cncc(-c4ccc5[nH]ccc5c4)n3)cc2)cc1 | 18.35%
COc1cc(C2=NCCN2)ccc1-n1cc(-c2cccc(C3=NCCN3)c2)nn1.O=CO.O=CO | 8.66%
COc1cccc(CC(=O)N2CCC(n3c(C)nc4ccc(F)cc43)CC2)c1 | 12.63%
O=C(c1ccc(NCCO)cc1)C1C[C@H]1c1ccc(Cl)cc1 (some centres not stated) | 3.91%
Nc1nc(N)c2c3c(sc2n1)CN(Cc1ccccc1)CC3 | 12.64%
COCC(C)NC(=O)CSc1ncnc2sc(-c3ccccc3)cc12 (configuration not stated) | 12.56%
c1ccc(-c2cc(N3CCCCC3)c3ccccc3n2)nc1 | 13.54%
Cc1ccc(NC(=O)c2nc[nH]c2C(=O)Nc2nc3ccccc3[nH]2)c(C)c1 | 12.15%
CCc1nc2ccc(Cl)cn2c1C(=O)NCc1ccc(N2CCC(c3ccc(OC(F)(F)F)cc3)CC2)cc1 [TELACEBEC] | 16.3%
COc1ccc(N(CCc2cccc(C)n2)C(=O)C2CCCCC2)cc1 | 10.98%
Cc1nnc(NCc2cccc(Cl)c2)c2ccccc12 | 16.77%
COc1cc2ncnc(NC3CCN(Cc4ccccc4)CC3)c2cc1OC | 7.14%
FC(F)(F)c1cc(NCCc2ccccc2)nc(-c2ccccn2)n1 | -8.01%
CC(C)(C)n1nc(Cc2ccc(F)c(Cl)c2)c2c(N)ncnc21 | 9.69%
Cc1nc(-c2ccccn2)nc(NCCc2ccc(S(C)(=O)=O)cc2)c1Cl | 7.92%
COc1ccc2nc(C)cc(OCC(=O)NCc3ccccc3)c2c1 | 16.67%
O=C(NC1CC1)c1ccc(N2CCOc3ccc(Cl)cc32)s1 | 13.73%
CCc1nc2ccc(C(=O)NCc3ccc4c(c3)OCO4)cn2c1N(C)Cc1cccs1 | 3.23%
CCc1ccccc1-n1c(C)cn2c3c(=O)n(C(C(=O)OC)C(C)C)c(=O)n(C)c3nc12 (configuration not stated) | 11.58%
CCc1ccc(S(=O)(=O)Nc2cc(CN3CCN(CCC(C)C)CC3)ccc2C)cc1 | 17.64%
COC(=O)c1c(NC(=O)c2cc3ccccc3oc2=O)sc2c1CCN(Cc1ccccc1)C2 | 13.11%

Compound | Inhibition
CC(C)(C)n1nc(Cc2cccc3ccccc23)c2c(N)ncnc21 | 2.58%
COc1ccc(N(CCc2cccc(C)n2)C(C)=O)cc1 | 12.62%
NS(=O)(=O)c1cccc(-c2ccc3ncc(N4CCOCC4)nc3c2)c1 | 13.07%
Cc1[nH]c2cc(F)cc(F)c2c(=O)c1-c1ccc(Oc2ccc(OC(F)(F)F)cc2)cc1 | 1.91%
CC(C)(C)c1cnc(NC(=O)c2ccccc2O)s1 | 6.92%
c1ccc(Oc2ccc(-c3cc(CN4CCOCC4)[nH]n3)cc2)cc1 | 4.64%
CCc1nc2ccccc2n1CC(O)COc1cc(C)ccc1Cl (configuration not stated) | 5.73%
CC(C)(CN)c1nc(-c2ccc(Cl)c(O)c2)c(-c2ccnc(N)n2)[nH]1.O=C(O)C(F)(F)F.O=C(O)C(F)(F)F | 14.38%
CS(=O)(=O)c1ccccc1C(=O)N(Cc1ccccc1)c1ccccc1 | 9.99%
O=C(Nc1cnc2ccccc2c1)c1cccc(-n2cnnn2)c1 | 7.51%
Cc1ccc(Oc2ccc(NC(=O)CNc3ccccc3N3CCCC3=O)cc2)cc1 | 6.31%
O=C(Nc1nc(-c2ccccn2)cs1)C1CC1c1ccccc1F (configuration not stated) | 22.08%
CCc1ccc([C@@H]2C[C@H](C(F)(F)F)n3ncc(C(=O)NCc4ccc(OC)cc4)c3N2)cc1 | 4.41%
Cc1nc2ccccn2c1C(=O)NCc1ccc(Cl)cc1 | 14.4%
Cc1cc(C(=O)Nc2ccc(-c3ccccc3)cc2)no1 | 14.78%
COc1ccc(CCN2CCC(NCc3cccc(N(C)C)c3)CC2)cc1 | 14.06%
Cc1ccc2oc(-c3cc(NC(=O)Cc4ccccc4)ccc3Cl)nc2c1 | 0.26%
O=C(C1CCCCC1)N1CC(=O)N2CCc3ccccc3C2C1 (configuration not stated) [PRAZIQUANTEL] | 8.27%
C[C@]1(O)C[C@@H](c2nc(-c3ccc4ccc(-c5ccccc5)nc4c3)c3c(N)nccn32)C1 [LINSITINIB] | 6.6%
CC(C)(C(=O)Nc1ccc(F)cc1)n1cc(-c2ccccc2F)cn1 | 14.56%
Cc1c[nH]c(CCNC(=O)c2cc(-c3ccc(Cl)cc3)cs2)n1 | 18.02%
CC1=Nc2ccc(Cl)cc2C(O)(c2ccc(C)cc2)N1CCN1CCCCC1 (configuration not stated) | 19.99%
CC(C)C(Oc1cccc2ccccc12)C(=O)O (configuration not stated) | 8.03%

Compound | Inhibition
CCn1ncc2c(NC3CCOCC3)c(CNC(=O)c3ccnn3C)c(C)nc21 | -3.99%
CCCn1nnc(NC(=O)COc2ccc(C3CCCCC3)cc2)n1 | 1.58%
COc1ccc(C2=NCCN2)cc1-c1cn(-c2cccc(C3=NCCN3)c2)nn1.O=C(O)C(F)(F)F.O=C(O)C(F)(F)F | 14.39%
Clc1cccc(CO[C@H]2CCc3ccccc3[C@@H]2n2ccnn2)c1 | 4.95%
COc1ccc(C2=NN(C3CCCCCC3)C(=O)[C@@H]3CC=CC[C@H]23)cc1OCCCCOc1ccc(-c2nnn[nH]2)cc1 | 5.33%
CC1(C)Cc2c(c(N3CCOCC3)nc3snc(Br)c23)CO1 | 12.17%
CCNC(=O)C(C)Nc1nc(-c2cccnc2)nc2sc(C)c(C)c12 (configuration not stated) | 7.51%
CNc1cc(C)nc(C2CN(C(=O)c3n[nH]c4ccccc34)CCO2)c1 (configuration not stated) | 18.72%
Cc1cccc(-c2nc(Nc3ccncn3)c3sccc3n2)n1 | 10.1%
Cc1cc(Nc2ccncc2)n2nc(C)c(-c3ccccc3Cl)c2n1 | 18.79%
COc1cc(Br)cc2cc(C(=O)Nc3cccc(C(F)(F)F)c3)c(=O)oc12 | 9.72%
COC(=O)c1c(NC(=O)c2c(F)c(F)c(F)c(F)c2F)sc2c1CCCCC2 | 11.43%
CCOc1ccc2cc(-c3nn(C(C)(C)C)c(N)c3C(N)=O)cnc2c1.Cl | 18.58%
O=C(CCC1CCCCC1)Nc1cccc(-c2nnc(-c3ccco3)o2)c1 | 7.09%
CC(C)n1ncc2c(C(=O)NCC(c3cccs3)N3CCOCC3)cc(-c3ccccc3)nc21 (configuration not stated) | 6.38%
Cc1ccc(S(=O)(=O)N2CCN(C(=O)c3cc(-c4ccccc4)n[nH]3)CC2)cc1 | 1.63%
CS(=O)(=O)N1CCC(Cn2nc(Cc3cccc4ccccc34)c3c(N)ncnc32)CC1 | 11.58%
CC(C)(C)c1cc(C(=O)N2CCN(c3nccnc3C#N)CC2)n(Cc2ccccc2)n1 | 12.51%
CN1CCN(S(=O)(=O)c2ccc(-c3ccc4c(Nc5ncc(Cl)cn5)ccnc4c3)cc2)CC1 | 9.93%
CC(=O)N1CCc2cc3nc(C)cc(C)c3cc21 | 9.67%
COc1ccc(-c2cnc3ccc(NCc4ccc(S(N)(=O)=O)cc4)nn23)cn1 | 15.51%
CS(=O)(=O)c1ccc(C(=O)N(CC2CCCO2)c2nc3ccccc3s2)cc1[N+](=O)[O-] (configuration not stated) | 7.08%
O=C(c1cc2ccccc2o1)N1CCN(Cc2ccc3c(c2)OCO3)CC1 | 7.3%

Exported as comma-separated lines: part of the list above.
Compound,Inhibition
CC1(C)Cc2c(c(N3CCOCC3)nc3snc(Br)c23)CO1,12.17%
CCNC(=O)C(C)Nc1nc(-c2cccnc2)nc2sc(C)c(C)c12 (configuration not stated),7.51%
CNc1cc(C)nc(C2CN(C(=O)c3n[nH]c4ccccc34)CCO2)c1 (configuration not stated),18.72%
Cc1cccc(-c2nc(Nc3ccncn3)c3sccc3n2)n1,10.1%
Cc1cc(Nc2ccncc2)n2nc(C)c(-c3ccccc3Cl)c2n1,18.79%
COc1cc(Br)cc2cc(C(=O)Nc3cccc(C(F)(F)F)c3)c(=O)oc12,9.72%
COC(=O)c1c(NC(=O)c2c(F)c(F)c(F)c(F)c2F)sc2c1CCCCC2,11.43%
CCOc1ccc2cc(-c3nn(C(C)(C)C)c(N)c3C(N)=O)cnc2c1.Cl,18.58%
O=C(CCC1CCCCC1)Nc1cccc(-c2nnc(-c3ccco3)o2)c1,7.09%
CC(C)n1ncc2c(C(=O)NCC(c3cccs3)N3CCOCC3)cc(-c3ccccc3)nc21 (configuration not stated),6.38%
Cc1ccc(S(=O)(=O)N2CCN(C(=O)c3cc(-c4ccccc4)n[nH]3)CC2)cc1,1.63%
CS(=O)(=O)N1CCC(Cn2nc(Cc3cccc4ccccc34)c3c(N)ncnc32)CC1,11.58%
CC(C)(C)c1cc(C(=O)N2CCN(c3nccnc3C#N)CC2)n(Cc2ccccc2)n1,12.51%
CN1CCN(S(=O)(=O)c2ccc(-c3ccc4c(Nc5ncc(Cl)cn5)ccnc4c3)cc2)CC1,9.93%
CC(=O)N1CCc2cc3nc(C)cc(C)c3cc21,9.67%
COc1ccc(-c2cnc3ccc(NCc4ccc(S(N)(=O)=O)cc4)nn23)cn1,15.51%
CS(=O)(=O)c1ccc(C(=O)N(CC2CCCO2)c2nc3ccccc3s2)cc1[N+](=O)[O-] (configuration not stated),7.08%
O=C(c1cc2ccccc2o1)N1CCN(Cc2ccc3c(c2)OCO3)CC1,7.3%
